Assay results reported in article PMC9452514, “Coiled-coil structure of meiosis protein TEX12 and conformational regulation by its C-terminal tip” (Communications Biology, 2022).
Results are given in words; binding and its absence hold for the method and conditions named. Some results given as binding are weak or reduced against the parent protein; the word gives no strength.

Target: TEX12 F109E (human) (UniProt Q9BXU0)
Test: SEC-SAXS; Superdex 200 Increase 10/300 GL, 20 mM Tris pH 8.0, 150 mM KCl; samples at >5 mg/ml; beamline B21, Diamond Light Source; both purified

B1: TEX12 F109E (domain or fragment, UniProt Q9BXU0 49-123)
chain: KDEALEKDLNDVSKEINLMLSTYAKLLSERAAVDASYIDEIDELFKEANAIENFLIQKREELRQRFTVIANTLHR
- binding: binds
